The values below come from PMC7819943, “Rice protein-binding microarrays: a tool to detect cis-acting elements near promoter regions in rice”.

Some of the results follow.

This assay concerns the target T1, OsSMF1 (Oryza sativa, UniProt Q6ZLB0 1-436).
T1 sequence: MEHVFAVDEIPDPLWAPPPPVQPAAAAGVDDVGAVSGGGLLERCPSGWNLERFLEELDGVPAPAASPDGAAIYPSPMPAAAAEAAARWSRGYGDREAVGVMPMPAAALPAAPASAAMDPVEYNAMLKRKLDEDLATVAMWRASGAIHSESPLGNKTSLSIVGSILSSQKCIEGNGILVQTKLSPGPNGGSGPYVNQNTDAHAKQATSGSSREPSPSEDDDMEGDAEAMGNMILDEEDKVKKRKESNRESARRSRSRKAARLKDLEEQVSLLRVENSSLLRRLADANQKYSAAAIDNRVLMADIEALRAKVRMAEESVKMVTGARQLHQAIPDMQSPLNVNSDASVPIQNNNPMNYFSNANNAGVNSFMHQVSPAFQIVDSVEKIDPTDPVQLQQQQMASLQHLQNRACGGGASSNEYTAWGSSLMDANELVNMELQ
The assay is described as follows: protein-binding microarray (RPBM); PBS, 2% BSA, 51.3 ng/ul salmon testes DNA, 50 uM zinc acetate, 200 nM TF, 25 C, 1 h; high values mean tight binding. Particulars: protein: recombinant; tags: N-terminal polyhistidine and DsRed monomer fusion (pET32a); chain copies: 2; label: CyDye5-dUTP incorporated in the synthesized complementary strand; 3' TTTTT single-stranded linker to array surface; dsDNA, one strand shown. The gist of the method: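 Using Ni–NTA, transcription factors fused N-terminally to polyhistidine and DsRed were purified after expression in E. coli BL21-CodonPlus. These were incubated at 200 nM with a blocked, double-stranded custom Agilent array for 1 h at 25 °C in a buffer containing 50 µM zinc acetate, and the array was washed. The binding signal is per-feature fluorescence intensity (arbitrary units) on an Axon 4000B scanner.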
For “ATGTGTTGATTTGTGTGTATGACTCAGCTTACTACTACATCGGAGTCACCTAGTGCAG”, the binding signal is 10500 fluorescence intensity (a.u.).

As for “GATGGATGGATGGATCCCAAGTGGGCGACGTGGCTGCTTCCGGAGTCACCTAGTGCAG”, the binding signal is 6010 fluorescence intensity (a.u.).

For the sequence “ATCCCGCGCAAAAGCTGCGGCTCCACGCGCGCGCGTCATCCGGAGTCACCTAGTGCAG”, the binding signal was 4070 fluorescence intensity (a.u.).

Turning to “TACGAGCTTCTCCTCCTCCGCTGGTCATCATCCTACCTGTCGGAGTCACCTAGTGCAG”, the binding signal is 5560 fluorescence intensity (a.u.).

For the sequence “TACTCTAGTATATCACGTTGATGATATCATGATACTTAAGCGGAGTCACCTAGTGCAG”, the binding signal is 3500 fluorescence intensity (a.u.).

On to “TTGAACCAACACTATATCATACACCTAGTCACCTACTCCTCGGAGTCACCTAGTGCAG”, for which the binding signal is 4770 fluorescence intensity (a.u.).

As to “CGCGCTCTCCGACAAGGTCGGCCAGCTCACGGCGCTCCGCCGGAGTCACCTAGTGCAG”, the binding signal was 4180 fluorescence intensity (a.u.).

With “GTGCATAAATTTATTAAAATAGAAAATTAATGCAGTGCCACGGAGTCACCTAGTGCAG”, the binding signal is 4660 fluorescence intensity (a.u.).

For the sequence “CCGTGCGCCGCACCGCGCCGCGCCACGTCGCGTGGGCCCGCGGAGTCACCTAGTGCAG”, the binding signal is 4960 fluorescence intensity (a.u.).

Turning to “AGCCAAATCAGAGGCAACAATGTATGTAGCATGTTGTCCTCGGAGTCACCTAGTGCAG”, the binding signal was 3590 fluorescence intensity (a.u.).

With “GAGCTGCGGCGCGCTGCTCGCTAGGCTGATGAAGCACAAGCGGAGTCACCTAGTGCAG”, the binding signal is 28100 fluorescence intensity (a.u.).

For “GGTGAGAGACCTTTCCTGAAACCAGCAGAGGGAGCTTTGCCGGAGTCACCTAGTGCAG”, the binding signal was 3250 fluorescence intensity (a.u.).

On to “GCACCCCTCTGACGTGGTCACTGACAGGTGGGCCCGAGAGCGGAGTCACCTAGTGCAG”, for which the binding signal is 13100 fluorescence intensity (a.u.).

“GCTCTCATCAACTCGACTCGACCGGTAATCGATCGCGACTCGGAGTCACCTAGTGCAG”: the binding signal was 34800 fluorescence intensity (a.u.).

Regarding “AAAGAGGAGGAATCTTGGGCCGCTGTAATCTTTCCTTCGACGGAGTCACCTAGTGCAG”, the binding signal was 3730 fluorescence intensity (a.u.).

For the sequence “ATCCGAATGGCGTACGCAGATATATATGTCCAGCGCGGAACGGAGTCACCTAGTGCAG”, the binding signal was 3350 fluorescence intensity (a.u.).

In the case of “CCGGCCACATGACCATAGAGCTCGAGTGGTGAGTGCGGACCGGAGTCACCTAGTGCAG”, the binding signal is 3150 fluorescence intensity (a.u.).

For “CACGTCATCTTCCCCTTTCACTCGCTCACCACCACCGCGGCGGAGTCACCTAGTGCAG”, the binding signal was 27800 fluorescence intensity (a.u.).

“TAAATCGATCCTACGTCACATGACAGACTGGACCCTTGTCCGGAGTCACCTAGTGCAG”: the binding signal is 10900 fluorescence intensity (a.u.).

For the sequence “CCTCTGCAGGATCCTGCAGTGCCGACGCAGCATGGAGCCACGGAGTCACCTAGTGCAG”, the binding signal was 3210 fluorescence intensity (a.u.).

“AGTAGTAGAGAGGAGGAGAGATTGCGTGGGGATAGCAGAACGGAGTCACCTAGTGCAG”: the binding signal was 3910 fluorescence intensity (a.u.).

As to “GATATATCCACATCAGCGTGCATACAAGTGTGTCAAAGCTCGGAGTCACCTAGTGCAG”, the binding signal was 8160 fluorescence intensity (a.u.).

Regarding “TCGTTCAGGTTCGCCCCGTCCAGCCACCCGCCGCCGCCGCCGGAGTCACCTAGTGCAG”, the binding signal was 13700 fluorescence intensity (a.u.).

With “GGTGGTGGTGGTGGTGGTGTTGTTGCTGCTGCTACTACTCCGGAGTCACCTAGTGCAG”, the binding signal was 3870 fluorescence intensity (a.u.).

For “GACCCCATGTTCTTGTCTCCTCATGACACACTGGCCATGTCGGAGTCACCTAGTGCAG”, the binding signal is 3260 fluorescence intensity (a.u.).

In the case of “CACATTTAATTCAAATTTCTGTTCGTCTTACAGTCAGCTACGGAGTCACCTAGTGCAG”, the binding signal was 3490 fluorescence intensity (a.u.).

“CCTCCTGGCCCCACGCGCCCCACGCCACCTTGATACTCGCCGGAGTCACCTAGTGCAG”: the binding signal is 3660 fluorescence intensity (a.u.).

As to “CATCATGGCCAGAAAACAATTAGCTCCTCGGCCCACGTGGCGGAGTCACCTAGTGCAG”, the binding signal is 7600 fluorescence intensity (a.u.).

As to “CGGATCCATCAAGGTTGTTGATTCAAGCCTATGTGCAGTGCGGAGTCACCTAGTGCAG”, the binding signal is 4020 fluorescence intensity (a.u.).

As to “AACCCCGTCAACATCGAGCGTCTCCAGGTAAGACGTCGCGCGGAGTCACCTAGTGCAG”, the binding signal is 3380 fluorescence intensity (a.u.).

Turning to “AAGCACTCCAAACTGCAACGATTATATCAATAAAATAAAACGGAGTCACCTAGTGCAG”, the binding signal was 39000 fluorescence intensity (a.u.).

On to “GTTTGGCCAATTGTCACCACCCAGCGTGTACGTACAACACCGGAGTCACCTAGTGCAG”, for which the binding signal was 3330 fluorescence intensity (a.u.).

As for “GCTCTGTATATTGATTTGGTCAGTTGGATTAGGTCAACGACGGAGTCACCTAGTGCAG”, the binding signal was 3460 fluorescence intensity (a.u.).

“AAACTGGCAAACGCGTCACATGAGTTTTACCTACCAATGTCGGAGTCACCTAGTGCAG”: the binding signal was 3230 fluorescence intensity (a.u.).

Consider “TGACAGGTGGGACCAGATATTAATAGTGTAGTATATCACTCGGAGTCACCTAGTGCAG”, for which the binding signal is 7080 fluorescence intensity (a.u.).

Turning to “ATTTGGGGATCTCAGAAATTGTTATATTTTCAGACTGAGGCGGAGTCACCTAGTGCAG”, the binding signal is 19200 fluorescence intensity (a.u.).

For “ATCAGCAATCAGATCAGTACATCATCAAAGGGTGTGTAGTCGGAGTCACCTAGTGCAG”, the binding signal was 3580 fluorescence intensity (a.u.).

On to “GGCCTCGCCGACCCCGTCACCAACATCATCCTCAACGCCGCGGAGTCACCTAGTGCAG”, for which the binding signal was 5900 fluorescence intensity (a.u.).

For “CCGCCGCTCCGCCTCCGCCGCATGCCGCGCGCCAAGGCCGCGGAGTCACCTAGTGCAG”, the binding signal is 3140 fluorescence intensity (a.u.).

With “CACAGAGTCAGAGTCAAATTACACCTGAGTTGGCAAAGTCCGGAGTCACCTAGTGCAG”, the binding signal was 5250 fluorescence intensity (a.u.).

In the case of “TGGGACTGCGGCCCCACCTGTCAGCGAAGGGTTGAACTCCCGGAGTCACCTAGTGCAG”, the binding signal was 3900 fluorescence intensity (a.u.).

For the sequence “GAATTAATGTTCAACTTTGATCAACCTTACTTAGTCACATCGGAGTCACCTAGTGCAG”, the binding signal was 4200 fluorescence intensity (a.u.).
